Data taken from ChEMBL document CHEMBL3988442, “University of Dundee, Small-Polar-MMV Screening Library” (2021).

By UniProt entry, the sequences of proteins in these tests, tags left out.
UniProt P9WNZ1, whole entry: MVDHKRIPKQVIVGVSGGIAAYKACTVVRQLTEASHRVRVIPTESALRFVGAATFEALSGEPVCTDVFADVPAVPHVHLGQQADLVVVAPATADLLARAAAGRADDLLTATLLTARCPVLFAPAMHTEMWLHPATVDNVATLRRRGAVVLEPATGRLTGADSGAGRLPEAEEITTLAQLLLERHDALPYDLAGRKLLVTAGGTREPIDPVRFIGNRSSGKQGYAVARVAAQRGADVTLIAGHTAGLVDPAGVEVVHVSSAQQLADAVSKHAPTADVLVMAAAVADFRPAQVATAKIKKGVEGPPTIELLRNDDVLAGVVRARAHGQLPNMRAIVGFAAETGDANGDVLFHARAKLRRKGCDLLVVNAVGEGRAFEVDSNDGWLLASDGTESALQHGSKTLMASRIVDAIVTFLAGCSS

Results are given as percent effect.
The controls that fix the scale are not given in the record; negative values are as filed.
The compounds are a random part of those screened.
Two or more numbers in one place are separate tests of the same structure; such repeats can differ widely.
A dash means the value is not listed here; it may have been measured.

Leishmania in macrophages: 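Cell assay of Leishmania donovani living inside macrophages; the read-out is not stated. Concentration: 30 µM. Higher reads as stronger inhibition (inferred: compounds with an IC50 in retests scored well above the rest). Of about 69,000 compounds tested this way, about 1,000 (1.5%) reached 50% or more in at least one test.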
CoaBC: 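Coenzyme A biosynthesis protein CoaBC, Mycobacterium tuberculosis (UniProt P9WNZ1). Enzyme assay of CoaBC with a phosphate dye (Biomol Green) read at 650 nm. Compounds at 30 µM. Higher reads as stronger inhibition, judged from the few compounds that gave an IC50. Most strong results did not repeat in a second test. Of about 67,000 compounds tested this way, about 40 (0.06%) reached 50% or more in at least one test.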

structure | Leishmania in macrophages | CoaBC
O=C1CCCN1Cc1nc(-c2ccsc2)no1 | -22.15 | 6.971
O=C1CCc2cc(NC(=O)C3CCCN3c3nccs3)ccc2N1 (centres undefined) | 25.86 | 0
CC1CCN(C(=O)CN2CC(c3nc(C4CC4)no3)C2)CC1.O=C(O)C(=O)O | -22.87 | -
CCn1[nH]c(C)c2c(C(F)(F)C(F)(F)F)cc(=O)nc1-2 | 15.41 | 0.8147
O=C(NC1CC1)[C@@H]1CCO[C@@H]2CCN(Cc3ccco3)C[C@H]21 | - | 1.5
CC(C)(C)c1cc(CNC(=O)c2cc(COc3ccccc3)[nH]n2)[nH]n1 | 30.78 | 3.899
CCOC(C)c1nc(CN2CCN(c3ncc(C)cn3)CC2)cs1 (centres undefined) | 13.26 | -0.7335
COCCOCC(=O)NCc1ccc(N(C)C)nc1 | 47.24 | -2.254
O=C(O)c1c(-c2cccnc2)ncc2c1CCN(Cc1cccnc1)C2 | - | 2.941
CSc1cc2c(cc1NC(=O)NCC(C)(C)C(N)=O)OCCO2 | 17.47 | 1.035
c1ncn(CC2CCCN(Cc3nc(C4CC4)no3)C2)n1 (centres undefined) | 7.669 | 0.7712
CSCCNc1ccc(C(=O)N(C)Cc2ccc3ccccc3n2)cn1 | 19.8 | 3.929
COCCC(C)NC(=O)c1cc(Br)c2c(c1)OCCO2 (centres undefined) | 12.78 | -0.2611
CCn1cc2c(n1)CN(C(=O)c1ccncc1)CC2COCC1CC1 (centres undefined) | - | 0.3807
O=C(O)C1CCCN(C(=O)CCn2ccc3c(Br)cccc32)C1 (centres undefined) | -10.17 & 11.75 | 3.797
CN(CCO)Cc1nnc(C2CCN(C(=O)c3cc[nH]c3)CC2)n1C | 15.21 | 1.285
CNC(=O)CN1CCC(CN(C)Cc2ccc(C)cc2C)CC1 | 29.29 | -2.81
O=C(CCc1nc(-c2ccccn2)no1)N1CCCC1c1ccsc1 (centres undefined) | 20.84 | 4.462
COCC(O)CNC(=O)Nc1ccc(Cl)cc1-n1cccc1 (centres undefined) | 22.77 | 1.04
CN(C)c1cc(C(=O)N2CCCCC2)ccn1 | 10.9 | 7.895
CCc1ccc(-c2cn(CCSc3ncn[nH]3)nn2)nc1 | 24.14 | 12.55
COc1cccc(C(C)Nc2ncnc3c2NC(=O)CN3)c1 (centres undefined) | 28.7 | -3.061
CC(=O)c1c(C)nn(CC(=O)Nc2ccc(F)cc2)c1C | -12.56 & 12.12 | 10.78
O=C(Nc1cccc(CN2CCOC2=O)c1)N1CCCCCC1 | 20.8 | -1.531
Cc1cn2c(n1)CCC(NC(=O)c1cnc(C)nc1C(C)C)C2 (centres undefined) | 14.94 | 9.231
O=C([C@H]1CC[C@@H]2[C@@H](CCN2C2CCOCC2)O1)N1CCOCC1 | - | 4
CCCOc1cc(CNC(=O)Nc2cccnc2N2CCCC2)ccn1 | 24.36 | 2.491
O=C(O)C(F)(F)F.O=C(O)C(F)(F)F.[H][C@]12CCN(c3ncc(F)cn3)[C@@]1([H])CC[C@H](COCc1ccccn1)O2 | -28.21 | -
CC(=O)N(Cc1ncc(C)o1)C1CCN(Cc2noc(C)n2)C1 (centres undefined) | 14.58 | 3.846
Cc1nc(CN2CCCC(N(C)Cc3nc(CC(C)C)no3)C2)no1 (centres undefined) | 3.18 | 9.719
CN(C)c1cc(C(=O)N2CCCCC2Cn2cccn2)ccn1 (centres undefined) | 13.15 | 2.872
Cc1cc(N2CCC(O)CC2)nc(C)n1 | 1.581 | 11.11
N#Cc1cccnc1NCCNC(=O)N1CCCC(N2CCCC2)C1 (centres undefined) | 27.13 | -7.051
O=C1OCCN1Cc1cccc(F)c1C(F)(F)F | 27.97 | 1.79
CN1CCOC(C(=O)Nc2nnc(Cc3ccc(F)cc3)[nH]2)C1 (centres undefined) | 12.89 | 0
[H][C@]12CC[C@]([H])(CN(CCC(=O)NCc3ccco3)C1)N(CC=C(C)C)C2 | 10.73 | -
c1cc(CN2CCC(CCn3cccn3)CC2)cc(Cn2cccn2)c1 | -23.09 | 6.152
N#CC1(NC(=O)c2nccc3ccccc23)CCC1 | -13.15 | 0.638
O=C(Nc1cccc2c1CCCC2)c1cccc(CN2CC[C@H](O)C2)c1 | 10.81 | 5.093
CC(C)CCNc1nc(C(=O)NC2CC2)cs1 | 1.315 & 3.48 | 0.7595
COCC1c2c(cnn2CC2CC2)CCN1Cc1ccsc1.O=C(O)C(F)(F)F.O=C(O)C(F)(F)F (centres undefined) | -0.4992 | -
O=C(COc1coc(CN2CCCCCC2)cc1=O)c1ccccc1 | 12.38 | 2.024
O=C(Nc1cc(-c2ccncc2)no1)C1CCCCC1 | 14.77 | 6.517
CCC1CN(Cc2nc(C(C)C)no2)CCC(=O)N1Cc1ccccc1 (centres undefined) | -12.85 | 8.365
O=C(c1ccco1)N1CCCC(c2cc(C(F)F)n3ncnc3n2)C1 (centres undefined) | -1.739 | -0.8333
CCCn1[nH]cc/c1=N\C(=O)CN1CCOC(Cn2cc(C)cn2)C1 (centres undefined) | 2.171 | 5.867
Cc1ccc(-c2csc3c(=O)[nH]c(N4CCCC(C(=O)O)C4)nc23)cc1 (centres undefined) | 2.618 & 26.75 | 3.594
Cc1ccc2c(n1)N(CC1CC1)CCN(C(=O)NC1CC1)C2 | - | 6.189
CN(Cc1ccsc1)C(=O)Nc1ccc(S(C)(=O)=O)cc1 | 12.45 | 2.362
CS(=O)(=O)N1CCCC12CCCN(C(=O)c1ccno1)C2 (centres undefined) | -2.237 | 2.336
OCCN1CCOC2(CCCN(c3ncccn3)C2)C1 (centres undefined) | 18.36 | 2.254
CN(CCSc1nncn1C(C)(C)C)c1ccccc1 | -17.04 | 1.132
c1ccc(C2CCCN2C2CSCCSC2)nc1 (centres undefined) | 17.41 | 16.2
COCCOC1CCN(C(C(=O)O)c2ccc(F)c(Cl)c2)CC1 (centres undefined) | 8.906 | 2.963
Cn1cccc1C(=O)N1CCCCC1c1ccn2ccnc2n1 (centres undefined) | 5.606 | 7.787
CN(C)S(=O)(=O)N1CCN(c2cc(-n3cccc3)ncn2)CC1 | -19.01 | 1.908